Source: US8507481B2, “Benzoxazine oxazolidinone compounds, preparation methods and uses thereof” (Shanghai Institute of Materia Medica, Chinese Academy of …, priority 2010, dated 2013)
Some of these results come from one statement about several compounds together. At least one structure is not confirmed: it was looked up by name or label, or the drawing left a doubt. Some ranges recur; such a range may be that of the whole group of compounds.

System: all the tested bacteria (31 pathogenic bacteria)
Assay: In vitro antibacterial activity, all tested strains compared with LZ
Format: cell-based
Details: against all the tested bacteria

SMILES	antibacterial activity, times stronger than that of the control drug LZ
CC(=O)NC[C@@H]1OC(=O)N2c3ccc(-c4ccc(C#N)nc4)cc3OC[C@@H]12 [Compound 7, N-(((3S,3aS)-7-(6-cyanopyridin-3-yl)-1-oxo-1,3,3a,4-tetrahydrobenzo[b]oxazole-[3,4-d][1,4]oxazin-3-yl)methyl)acetamide]	4-8 times
CC(=O)NC[C@@H]1OC(=O)N2c3ccc(-c4ccc([N+](=O)[O-])nc4)cc3OC[C@@H]12 [Compound 14, N(((3S,3aS)-1-oxo-7-(6-nitropyridin-3-yl)-1,3,3a,4-tetrahydrobenzo[b]oxazole[3,4-d][1,4]oxazin-3-yl)methyl)acetamide]	4-8 times
CC(=O)NC[C@@H]1OC(=O)N2c3ccc(-c4ccc(N5CCOC5=O)nc4)cc3OC[C@@H]12 [Compound 41, N(((3S,3aS)-7-(6-(oxazolidin-2-one-3-yl)pyridin-3-yl)-1-oxo-1,3,3a,4-tetrahydrobenzo[b]oxazole[3,4-d][1,4]oxazin-3-yl)methyl)acetamide]	4-8 times
CC(=O)NC[C@@H]1OC(=O)N2c3ccc(-c4ccc(CO)nc4)cc3OC[C@@H]12 [Compound 47]	4-8 times
N#Cc1ccc(-c2ccc3c(c2)OC[C@H]2[C@@H](Cn4ccnn4)OC(=O)N32)cn1 [Compound 49, (3R,3aS)-3-((1H-1,2,3-triazol-1-yl)methyl)-7-(6-cyanopyridin-3-yl)-3a,4-dihydrobenzo[b]oxazole[3,4-d][1,4]oxazine-1(3H)-one]	4-8 times
O=C1OCCN1c1ccc(-c2ccc3c(c2)OC[C@H]2[C@H](Cn4ccnn4)OC(=O)N32)cn1 [Compound 58, (3R,3aS)-3-((1H-1,2,3-triazol-1-yl)methyl)-7-(6-(oxazolidin-2-one-3-yl)pyridin-3-yl)-3a,4-dihydrobenzo[b]oxazole[3,4-d][1,4]oxazine-1(3H)-one]	4-8 times
CC(=O)NC[C@@H]1OC(=O)N2c3ccc(-c4ccc(C5(N)CC5)nc4)cc3OC[C@@H]12 [Compound 61, N(((3S,3aS)-7-(6-(1-aminocycloprop-1-yl)pyridin-3-yl)-1-oxo-1,3,3a,4-tetrahydrobenzo[b]oxazole-[3,4-d][1,4]oxazin-3-yl)methyl)acetamide]	4-8 times
